{"source": "the supplement of paper PMC8728848", "binders": {"B1": {"name": "Thrombomodulin Lectin (Mus musculus) (protein)", "chain": "LSALAKLQPTGSQCVEHECFALFQGPATFLDASQACQRLQGHLMTVRSSVAADVISLLLSQSSMDLGPWIGLQLPQGCDDPVHLGPLRGFQWVTGDNHTSYSRWARPNDQTAPLCGPLCVTVSTATEAAPGEPAWEEKPCETETQGFLCEFYFTASCRVDPIPVREDTKEEEGAGEPPVSPTPGSPTGPPSARPVLDEPRVPITQNPCPPLKECPPCAAPDLEGGPSVFIFPPKIKDVLMISLSPMVTCVVVDVSEDDPDVQISWFVNNVEVHTAQTQTHREDYNSTLRVVSALPIQHQDWMSGKAFACAVNNRALPSPIEKTISKPRGPVRAPQVYVLPPPAEEMTKKEFSLTCMITGFLPAEIAVDWTSNGRTEQNYKNTATVLDSDGSYFMYSKLRVQKSTWERGSLFACSVVHEGLHNHLTTKTISRSLGK"}}, "test_in_all_cases": "glycan array binding signal (z-score within array); higher = stronger binding", "conditions_in_all_cases": "glycan notation: IUPAC condensed, linker removed", "key": {"[1]": {"target": "Gal(a1-3)Gal(b1-4)GlcNAc(b1-2)Man", "procedure,_shortened": "(§1)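 Glycan array binding is given as a within-array Z-score, which can be read as non-binding when negative. The arrays, 3228 of them, came from the Consortium for Functional Glycomics database and were retained only where the protein sequence was available. Z-scores were averaged across arrays of the same protein sequence at different concentrations or buffers and across linkers.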"}, "[2]": {"target": "Gal(a1-3)Gal(b1-4)GlcNAc(b1-2)Man(a1-3)[Gal(a1-3)Gal(b1-4)GlcNAc(b1-2)Man(a1-6)]Man(b1-4)GlcNAc(b1-4)GlcNAc", "procedure,_shortened": "as §1"}, "[3]": {"target": "Gal(a1-3)Gal(b1-4)GlcNAc(b1-3)GalNAc", "procedure,_shortened": "as §1"}, "[4]": {"target": "Gal(a1-3)Gal(b1-4)GlcNAc(b1-6)GalNAc", "procedure,_shortened": "as §1"}, "[5]": {"target": "Gal(a1-3)Gal(b1-4)[Fuc(a1-3)]GlcNAc", "procedure,_shortened": "as §1"}, "[6]": {"target": "Gal(a1-3)Gal(b1-4)[Fuc(a1-3)]GlcNAc(b1-2)Man(a1-3)[Gal(a1-3)Gal(b1-4)[Fuc(a1-3)]GlcNAc(b1-2)Man(a1-6)]Man(b1-4)GlcNAc(b1-4)GlcNAc", "procedure,_shortened": "as §1"}, "Gal(a1-3)GalNAc": {"target": "Gal(a1-3)GalNAc", "procedure,_shortened": "as §1"}, "[7]": {"target": "Gal(a1-3)[Gal(a1-4)]Gal(b1-4)GlcNAc", "procedure,_shortened": "as §1"}, "[8]": {"target": "Gal(a1-4)Gal(b1-3)GlcNAc(b1-2)Man(a1-3)[Gal(a1-4)Gal(b1-3)GlcNAc(b1-2)Man(a1-6)]Man(b1-4)GlcNAc(b1-4)GlcNAc", "procedure,_shortened": "as §1"}, "Gal(a1-4)Gal(b1-4)Glc": {"target": "Gal(a1-4)Gal(b1-4)Glc", "procedure,_shortened": "as §1"}, "Gal(a1-4)Gal(b1-4)GlcNAc": {"target": "Gal(a1-4)Gal(b1-4)GlcNAc", "procedure,_shortened": "as §1"}, "[9]": {"target": "Gal(a1-4)Gal(b1-4)GlcNAc(b1-2)Man(a1-3)[Gal(a1-4)Gal(b1-4)GlcNAc(b1-2)Man(a1-6)]Man(b1-4)GlcNAc(b1-4)GlcNAc", "procedure,_shortened": "as §1"}, "[10]": {"target": "Gal(a1-4)Gal(b1-4)GlcNAc(b1-3)Gal(b1-4)Glc", "procedure,_shortened": "as §1"}, "Gal(a1-4)GlcNAc": {"target": "Gal(a1-4)GlcNAc", "procedure,_shortened": "as §1"}, "Gal(a1-6)Glc": {"target": "Gal(a1-6)Glc", "procedure,_shortened": "as §1"}, "Gal(b1-2)Gal": {"target": "Gal(b1-2)Gal", "procedure,_shortened": "as §1"}, "Gal(b1-3)Gal": {"target": "Gal(b1-3)Gal", "procedure,_shortened": "as §1"}, "Gal(b1-3)Gal(b1-4)GlcNAc": {"target": "Gal(b1-3)Gal(b1-4)GlcNAc", "procedure,_shortened": "as §1"}, "Gal(b1-3)GalNAc": {"target": "Gal(b1-3)GalNAc", "procedure,_shortened": "as §1"}, "[11]": {"target": "Gal(b1-3)GalNAc(a1-3)[Fuc(a1-2)]Gal(b1-4)Glc", "procedure,_shortened": "as §1"}, "[12]": {"target": "Gal(b1-3)GalNAc(a1-3)[Fuc(a1-2)]Gal(b1-4)GlcNAc", "procedure,_shortened": "as §1"}, "Gal(b1-3)GalNAc(b1-3)Gal": {"target": "Gal(b1-3)GalNAc(b1-3)Gal", "procedure,_shortened": "as §1"}, "[13]": {"target": "Gal(b1-3)GalNAc(b1-3)Gal(a1-4)Gal(b1-4)Glc", "procedure,_shortened": "as §1"}, "[14]": {"target": "Gal(b1-3)GalNAc(b1-4)Gal(b1-4)Glc", "procedure,_shortened": "as §1"}, "[15]": {"target": "Gal(b1-3)GalNAc(b1-4)[Neu5Ac(a2-3)]Gal(b1-4)Glc", "procedure,_shortened": "as §1"}, "Gal(b1-3)GlcNAc": {"target": "Gal(b1-3)GlcNAc", "procedure,_shortened": "as §1"}, "[16]": {"target": "Gal(b1-3)GlcNAc(a1-3)Gal(b1-4)GlcNAc", "procedure,_shortened": "as §1"}, "[17]": {"target": "Gal(b1-3)GlcNAc(a1-6)Gal(b1-4)GlcNAc", "procedure,_shortened": "as §1"}, "Gal(b1-3)GlcNAc(b1-2)Man": {"target": "Gal(b1-3)GlcNAc(b1-2)Man", "procedure,_shortened": "as §1"}, "[18]": {"target": "Gal(b1-3)GlcNAc(b1-2)Man(a1-3)[Gal(b1-3)GlcNAc(b1-2)Man(a1-6)]Man(b1-4)GlcNAc(b1-4)GlcNAc", "procedure,_shortened": "as §1"}, "[19]": {"target": "Gal(b1-3)GlcNAc(b1-2)Man(a1-3)[Gal(b1-3)GlcNAc(b1-2)Man(a1-6)]Man(b1-4)GlcNAc(b1-4)[Fuc(a1-6)]GlcNAc", "procedure,_shortened": "as §1"}, "[20]": {"target": "Gal(b1-3)GlcNAc(b1-2)Man(a1-3)[GlcNAc(b1-4)][Gal(b1-3)GlcNAc(b1-2)Man(a1-6)]Man(b1-4)GlcNAc(b1-4)GlcNAc", "procedure,_shortened": "as §1"}, "[21]": {"target": "Gal(b1-3)GlcNAc(b1-2)[Gal(b1-3)GlcNAc(b1-6)]Man(a1-6)[Gal(b1-3)GlcNAc(b1-2)Man(a1-3)]Man(b1-4)GlcNAc(b1-4)GlcNAc", "procedure,_shortened": "as §1"}, "[22]": {"target": "Gal(b1-3)GlcNAc(b1-3)Gal(b1-3)GlcNAc", "procedure,_shortened": "as §1"}, "[23]": {"target": "Gal(b1-3)GlcNAc(b1-3)Gal(b1-4)Glc", "procedure,_shortened": "as §1"}, "[24]": {"target": "Gal(b1-3)GlcNAc(b1-3)Gal(b1-4)GlcNAc", "procedure,_shortened": "as §1"}, "[25]": {"target": "Gal(b1-3)GlcNAc(b1-3)Gal(b1-4)GlcNAc(b1-2)Man(a1-3)[Gal(b1-3)GlcNAc(b1-3)Gal(b1-4)GlcNAc(b1-2)Man(a1-6)]Man(b1-4)GlcNAc(b1-4)GlcNAc", "procedure,_shortened": "as §1"}}, "note": "This is one part of the list."}
{"binder": "B1", "values": [{"measurement": "glycan array binding signal (z-score)", "setting": "[1]", "result": -1.07}, {"measurement": "glycan array binding signal (z-score)", "setting": "[2]", "result": 0.517}, {"measurement": "glycan array binding signal (z-score)", "setting": "[3]", "result": -1.6}, {"measurement": "glycan array binding signal (z-score)", "setting": "[4]", "result": 0.246}, {"measurement": "glycan array binding signal (z-score)", "setting": "[5]", "result": -1.68}, {"measurement": "glycan array binding signal (z-score)", "setting": "[6]", "result": 1.12}, {"measurement": "glycan array binding signal (z-score)", "setting": "Gal(a1-3)GalNAc", "result": -0.598}, {"measurement": "glycan array binding signal (z-score)", "setting": "[7]", "result": -0.316}, {"measurement": "glycan array binding signal (z-score)", "setting": "[8]", "result": 0.263}, {"measurement": "glycan array binding signal (z-score)", "setting": "Gal(a1-4)Gal(b1-4)Glc", "result": 0.161}, {"measurement": "glycan array binding signal (z-score)", "setting": "Gal(a1-4)Gal(b1-4)GlcNAc", "result": 0.128}, {"measurement": "glycan array binding signal (z-score)", "setting": "[9]", "result": 0.913}, {"measurement": "glycan array binding signal (z-score)", "setting": "[10]", "result": 0.021}, {"measurement": "glycan array binding signal (z-score)", "setting": "Gal(a1-4)GlcNAc", "result": 0.928}, {"measurement": "glycan array binding signal (z-score)", "setting": "Gal(a1-6)Glc", "result": -0.425}, {"measurement": "glycan array binding signal (z-score)", "setting": "Gal(b1-2)Gal", "result": 0.104}, {"measurement": "glycan array binding signal (z-score)", "setting": "Gal(b1-3)Gal", "result": 2.2}, {"measurement": "glycan array binding signal (z-score)", "setting": "Gal(b1-3)Gal(b1-4)GlcNAc", "result": 0.215}, {"measurement": "glycan array binding signal (z-score)", "setting": "Gal(b1-3)GalNAc", "result": -0.823}, {"measurement": "glycan array binding signal (z-score)", "setting": "[11]", "result": -1.3}, {"measurement": "glycan array binding signal (z-score)", "setting": "[12]", "result": 0.567}, {"measurement": "glycan array binding signal (z-score)", "setting": "Gal(b1-3)GalNAc(b1-3)Gal", "result": -0.295}, {"measurement": "glycan array binding signal (z-score)", "setting": "[13]", "result": 0.766}, {"measurement": "glycan array binding signal (z-score)", "setting": "[14]", "result": 0.526}, {"measurement": "glycan array binding signal (z-score)", "setting": "[15]", "result": 1.84}, {"measurement": "glycan array binding signal (z-score)", "setting": "Gal(b1-3)GlcNAc", "result": 0.176}, {"measurement": "glycan array binding signal (z-score)", "setting": "[16]", "result": -0.233}, {"measurement": "glycan array binding signal (z-score)", "setting": "[17]", "result": 0.476}, {"measurement": "glycan array binding signal (z-score)", "setting": "Gal(b1-3)GlcNAc(b1-2)Man", "result": -0.833}, {"measurement": "glycan array binding signal (z-score)", "setting": "[18]", "result": 0.924}, {"measurement": "glycan array binding signal (z-score)", "setting": "[19]", "result": 1.44}, {"measurement": "glycan array binding signal (z-score)", "setting": "[20]", "result": 0.031}, {"measurement": "glycan array binding signal (z-score)", "setting": "[21]", "result": -0.313}, {"measurement": "glycan array binding signal (z-score)", "setting": "[22]", "result": -0.119}, {"measurement": "glycan array binding signal (z-score)", "setting": "[23]", "result": -0.14}, {"measurement": "glycan array binding signal (z-score)", "setting": "[24]", "result": 1.05}, {"measurement": "glycan array binding signal (z-score)", "setting": "[25]", "result": -0.648}]}
